{"source": "patent US20240358678A1", "about": "“METHODS AND COMPOSITIONS FOR ENHANCING CHEMOTHERAPEUTIC DRUG UPTAKE INTO BRAIN TUMORS” (Brown University, priority 2023, published 2024)", "test_system": "HCMEC/D3 cells", "assay": "Trans-endothelial electrical resistance (TEER) of HCMEC/D3 monolayers", "assay_type": "cell-based, human", "conditions": "dose response", "experimental": "Trans-endothelial electrical resistance: HCMEC/D3 or HBMEC cells were plated in 8W10E+ PET 8-well arrays (Applied Biophysics) at a density of 100,000 cells/well in 500 μl. These arrays were placed in a pre-stabilized ECIS Z-Theta instrument (Applied Biophysics). Using the ECIS Z-Theta software (Applied Biophysics), measurements were set to 4000 and 64000 Hz every 30 minutes. […] Cells would then be treated with BIA and left to grow up to 5 days, with frequent drug-containing media re-addition for maintenance of the culture. Resistance (W) and capacitance (nF) were recorded and plotted.", "note": "For at least one compound, name, drawing or mass did not settle the structure.", "data": [{"smiles": "CC(=O)ON=C1C(=C2C(=O)Nc3cc(Br)ccc32)Nc2ccccc21", "note": "[BIA, 6-bromoindirubin acetoxime]", "values": [{"measurement": "BIA concentrations at which TEER effects occurred", "value": "0.1 to 10", "unit": "µM"}]}]}
